According to PMC8423574:
No constants are given. Whether binding was seen depends on the method and setting. Binding seen in cells or lysates may run through a third protein. Binding calls can cover weak binding; strength is not graded here.

Biological target: T1, p21 (rat (endogenous in H9C2)) (UniProt Q64315)
T1 sequence: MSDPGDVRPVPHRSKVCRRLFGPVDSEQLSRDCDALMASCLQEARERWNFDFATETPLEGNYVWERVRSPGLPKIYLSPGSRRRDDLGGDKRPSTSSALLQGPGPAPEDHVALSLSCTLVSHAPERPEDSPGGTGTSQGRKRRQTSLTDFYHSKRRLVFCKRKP
Assay: co-IP; lysate of H9C2 cells after IH stimulation; precipitated with p21 antibody or normal rabbit IgG and protein G Sepharose at 4°C; lysis buffer 50 mM Tris-HCl (pH 7.5), 150 mM NaCl, 0.5% Triton X-100, 1 mM EDTA; Western blot

- binding: binds
Substance: makorin ring finger protein 1 (MKRN1) (rat (endogenous in H9C2))
